Reference: PubChem BioAssay AID743448 (Peter MacCallum Cancer Centre, 2014)

- Screen: 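Find knock-downs giving vorinostat-specific cell death in several colon cancer lines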 (follow-up of hits)
- Cells: four human colon cancer cell lines: HCT116-VR (vorinostat-resistant HCT116 derivative), SW480, SW620 and LIM1215
- Knock-down reagent: siRNA pool against human genes, 40 nM siRNA pool
- Timing: drug added two days after transfection, read one day later
- Challenge: vorinostat 2.5 µM on one half of each plate, etoposide 5 µM on the other half
- Cell line and drug panel: SW620 cells with etoposide
- Read-out: 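Caspase 3/7 activity by luminescence and live-cell viability by fluorescence, each given as a ratio to mock-transfected wells and as a robust z-score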
- Reading the numbers: caspase ratio to mock: higher = more caspase activity than mock; viability ratio to mock: higher = more live cells than mock
- Active means: 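Hit means caspase ratio to mock at least 1.6, or viability ratio to mock at most 0.75; wells with strong death in the absence of drug get no call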
- Meaning of the calls: active = caspase or viability hit in this panel; inactive = no change, or unhealthy well
Shown is a random part of the 106 reagents, in one setting of the screen. 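Calls are per line and drug panel including etoposide, not vorinostat-specific; gene picks needed hits in two or more extra lines with vorinostat versus etoposide.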 Further read-outs or replicates are left out here.

{"Gene": "POLR2J (RNA polymerase II subunit J)", "caspase ratio to mock": 1.36, "viability ratio to mock": 0.9, "outcome": "inactive"}
{"Gene": "SERTAD1 (SERTA domain containing 1)", "caspase ratio to mock": 1.71, "viability ratio to mock": 0.91, "outcome": "active"}
{"Gene": "OR6T1 (olfactory receptor family 6 subfamily T member 1)", "caspase ratio to mock": 1.58, "viability ratio to mock": 0.96, "outcome": "inactive"}
{"Gene": "EIF2B2 (eukaryotic translation initiation factor 2B subunit beta)", "caspase ratio to mock": 1.24, "viability ratio to mock": 0.65, "outcome": "active"}
{"Gene": "IRX2-DT (IRX2 divergent transcript)", "caspase ratio to mock": 1.3, "viability ratio to mock": 0.92, "outcome": "inactive"}
{"Gene": "RBBP8 (RB binding protein 8, endonuclease)", "caspase ratio to mock": 2.41, "viability ratio to mock": 0.98, "outcome": "active"}
{"Gene": "ANKRD13C-DT (ANKRD13C divergent transcript)", "caspase ratio to mock": 0.97, "viability ratio to mock": 0.86, "outcome": "inactive"}
{"Gene": "ZNF441 (zinc finger protein 441)", "caspase ratio to mock": 1.36, "viability ratio to mock": 0.9, "outcome": "inactive"}
{"Gene": "CDK10 (cyclin dependent kinase 10)", "caspase ratio to mock": 1.54, "viability ratio to mock": 0.86, "outcome": "inactive"}
{"Gene": "NPEPPS (aminopeptidase puromycin sensitive)", "caspase ratio to mock": 0.78, "viability ratio to mock": 0.7, "outcome": "active"}
{"Gene": "PCP4 (Purkinje cell protein 4)", "caspase ratio to mock": 1.34, "viability ratio to mock": 0.93, "outcome": "inactive"}
{"Gene": "NUP133 (nucleoporin 133)", "caspase ratio to mock": 1.36, "viability ratio to mock": 0.77, "outcome": "inactive"}
{"Gene": "DNTTIP2 (deoxynucleotidyltransferase terminal interacting protein 2)", "caspase ratio to mock": 0.7, "viability ratio to mock": 0.84, "outcome": "inactive"}
{"Gene": "SAP130 (Sin3A associated protein 130)", "caspase ratio to mock": 0.76, "viability ratio to mock": 0.95, "outcome": "inactive"}
{"Gene": "GPER1 (G protein-coupled estrogen receptor 1)", "caspase ratio to mock": 1.4, "viability ratio to mock": 0.72, "outcome": "active"}
{"Gene": "TBC1D20 (TBC1 domain family member 20)", "caspase ratio to mock": 2.14, "viability ratio to mock": 0.86, "outcome": "active"}
{"Gene": "NFYA (nuclear transcription factor Y subunit alpha)", "caspase ratio to mock": 0.85, "viability ratio to mock": 0.94, "outcome": "inactive"}
{"Gene": "VPS4A (vacuolar protein sorting 4 homolog A)", "caspase ratio to mock": 1.93, "viability ratio to mock": 0.74, "outcome": "active"}
{"Gene": "BEGAIN (brain enriched guanylate kinase associated)", "caspase ratio to mock": 1.16, "viability ratio to mock": 0.95, "outcome": "inactive"}
{"Gene": "PRRT3 (proline rich transmembrane protein 3)", "caspase ratio to mock": 0.8, "viability ratio to mock": 0.88, "outcome": "inactive"}
{"Gene": "SCRT2 (scratch family transcriptional repressor 2)", "caspase ratio to mock": 1.18, "viability ratio to mock": 0.93, "outcome": "inactive"}
{"Gene": "PSMA7 (proteasome 20S subunit alpha 7)", "caspase ratio to mock": 1.52, "viability ratio to mock": 0.82, "outcome": "inactive"}
{"Gene": "SEMA4F (ssemaphorin 4F)", "caspase ratio to mock": 1.53, "viability ratio to mock": 0.99, "outcome": "inactive"}
{"Gene": "TDP2 (tyrosyl-DNA phosphodiesterase 2)", "caspase ratio to mock": 1.07, "viability ratio to mock": 0.86, "outcome": "inactive"}
{"Gene": "LAD1 (ladinin 1)", "caspase ratio to mock": 0.94, "viability ratio to mock": 0.96, "outcome": "inactive"}
{"Gene": "NUP62 (nucleoporin 62)", "caspase ratio to mock": 0.87, "viability ratio to mock": 0.92, "outcome": "inactive"}
{"Gene": "POLR2D (RNA polymerase II subunit D)", "caspase ratio to mock": 1.58, "viability ratio to mock": 0.87, "outcome": "inactive"}
{"Gene": "MTF2 (metal response element binding transcription factor 2)", "caspase ratio to mock": 1.5, "viability ratio to mock": 0.81, "outcome": "inactive"}

Already shown: an excerpt of the list.
{"Gene": "PSMA7 (proteasome 20S subunit alpha 7)", "caspase ratio to mock": 1.52, "viability ratio to mock": 0.82, "outcome": "inactive"}
{"Gene": "SEMA4F (ssemaphorin 4F)", "caspase ratio to mock": 1.53, "viability ratio to mock": 0.99, "outcome": "inactive"}
{"Gene": "TDP2 (tyrosyl-DNA phosphodiesterase 2)", "caspase ratio to mock": 1.07, "viability ratio to mock": 0.86, "outcome": "inactive"}
{"Gene": "LAD1 (ladinin 1)", "caspase ratio to mock": 0.94, "viability ratio to mock": 0.96, "outcome": "inactive"}
{"Gene": "NUP62 (nucleoporin 62)", "caspase ratio to mock": 0.87, "viability ratio to mock": 0.92, "outcome": "inactive"}
